Reference: PMC8278045
No constants are given. Whether binding was seen depends on the method and setting. Binding seen in cells or lysates may run through a third protein. Binding calls can cover weak binding; strength is not graded here.

The chains behind the UniProt entries cited, without tags or fusion partners. Where a name states a change or a piece, a line headed by the entry shows the natural chain unless it says otherwise.
UniProt Q31NL7: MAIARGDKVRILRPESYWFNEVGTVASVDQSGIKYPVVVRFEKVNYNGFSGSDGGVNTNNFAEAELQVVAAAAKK
UniProt P95822: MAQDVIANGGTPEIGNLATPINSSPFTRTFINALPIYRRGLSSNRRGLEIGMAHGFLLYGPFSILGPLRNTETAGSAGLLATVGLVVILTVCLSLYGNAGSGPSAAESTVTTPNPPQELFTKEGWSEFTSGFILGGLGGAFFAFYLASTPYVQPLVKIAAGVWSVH
UniProt P31094: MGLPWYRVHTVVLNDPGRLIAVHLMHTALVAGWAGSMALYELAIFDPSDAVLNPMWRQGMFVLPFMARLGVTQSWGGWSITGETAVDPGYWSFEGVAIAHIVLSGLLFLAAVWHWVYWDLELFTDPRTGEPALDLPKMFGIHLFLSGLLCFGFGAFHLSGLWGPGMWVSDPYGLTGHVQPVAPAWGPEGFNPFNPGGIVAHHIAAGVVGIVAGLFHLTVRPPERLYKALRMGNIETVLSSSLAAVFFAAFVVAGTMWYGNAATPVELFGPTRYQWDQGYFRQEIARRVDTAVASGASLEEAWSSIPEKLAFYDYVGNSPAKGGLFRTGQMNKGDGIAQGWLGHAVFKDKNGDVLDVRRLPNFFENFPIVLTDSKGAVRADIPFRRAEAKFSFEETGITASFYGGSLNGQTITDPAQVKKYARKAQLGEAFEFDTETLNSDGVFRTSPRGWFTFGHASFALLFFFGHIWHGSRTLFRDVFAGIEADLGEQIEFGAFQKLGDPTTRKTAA
UniProt P11472: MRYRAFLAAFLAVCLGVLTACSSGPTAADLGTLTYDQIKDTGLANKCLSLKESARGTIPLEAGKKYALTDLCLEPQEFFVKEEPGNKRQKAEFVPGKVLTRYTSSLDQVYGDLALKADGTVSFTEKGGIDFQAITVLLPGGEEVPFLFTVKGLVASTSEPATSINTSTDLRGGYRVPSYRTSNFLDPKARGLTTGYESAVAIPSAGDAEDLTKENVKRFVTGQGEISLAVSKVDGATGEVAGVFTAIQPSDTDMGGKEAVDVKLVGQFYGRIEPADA
UniProt Q31LJ0: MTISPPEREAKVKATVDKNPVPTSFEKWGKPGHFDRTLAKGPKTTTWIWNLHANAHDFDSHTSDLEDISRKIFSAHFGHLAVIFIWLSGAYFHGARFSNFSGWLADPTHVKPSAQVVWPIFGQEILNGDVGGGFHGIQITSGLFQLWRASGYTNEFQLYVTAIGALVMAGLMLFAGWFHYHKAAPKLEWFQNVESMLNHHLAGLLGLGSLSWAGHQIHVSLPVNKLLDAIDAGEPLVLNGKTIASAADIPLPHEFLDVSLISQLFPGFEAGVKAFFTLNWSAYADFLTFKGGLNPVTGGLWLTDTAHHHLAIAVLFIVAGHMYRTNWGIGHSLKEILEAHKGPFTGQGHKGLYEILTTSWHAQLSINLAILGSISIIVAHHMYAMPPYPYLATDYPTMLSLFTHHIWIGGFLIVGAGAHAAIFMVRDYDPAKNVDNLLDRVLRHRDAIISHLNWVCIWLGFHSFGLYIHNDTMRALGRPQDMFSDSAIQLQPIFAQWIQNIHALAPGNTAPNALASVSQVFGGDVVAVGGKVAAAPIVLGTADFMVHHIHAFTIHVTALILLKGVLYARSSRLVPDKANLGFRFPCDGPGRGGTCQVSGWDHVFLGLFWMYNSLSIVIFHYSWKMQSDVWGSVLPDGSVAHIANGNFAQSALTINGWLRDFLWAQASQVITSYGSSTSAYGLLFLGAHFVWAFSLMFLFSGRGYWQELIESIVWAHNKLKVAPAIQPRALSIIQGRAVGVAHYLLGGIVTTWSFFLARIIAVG
UniProt Q31LJ1: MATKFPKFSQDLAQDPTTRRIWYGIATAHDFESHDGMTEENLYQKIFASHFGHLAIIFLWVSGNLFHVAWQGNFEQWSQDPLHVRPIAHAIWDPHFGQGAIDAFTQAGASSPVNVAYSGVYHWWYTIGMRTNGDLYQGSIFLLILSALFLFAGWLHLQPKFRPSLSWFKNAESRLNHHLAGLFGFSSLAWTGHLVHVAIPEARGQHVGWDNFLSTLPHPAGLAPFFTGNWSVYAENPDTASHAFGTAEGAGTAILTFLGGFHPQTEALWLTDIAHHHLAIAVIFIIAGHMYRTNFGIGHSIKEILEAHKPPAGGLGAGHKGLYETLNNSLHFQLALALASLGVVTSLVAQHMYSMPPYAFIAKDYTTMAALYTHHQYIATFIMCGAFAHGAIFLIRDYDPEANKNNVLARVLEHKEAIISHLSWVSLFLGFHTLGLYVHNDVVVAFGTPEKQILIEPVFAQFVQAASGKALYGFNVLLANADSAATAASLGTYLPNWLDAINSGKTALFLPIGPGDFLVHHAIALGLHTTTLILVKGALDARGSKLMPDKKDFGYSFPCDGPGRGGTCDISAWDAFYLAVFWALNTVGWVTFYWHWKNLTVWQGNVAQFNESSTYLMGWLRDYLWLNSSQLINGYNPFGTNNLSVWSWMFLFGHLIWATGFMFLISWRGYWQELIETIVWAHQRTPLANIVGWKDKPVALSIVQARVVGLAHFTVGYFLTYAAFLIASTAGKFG

target: PsaE of Photosystem I labelled with enhanced GFP (PSI–GFP) (Synechococcus elongatus PCC 7942) (UniProt Q31NL7); experiment: co-IP; GFP pull-down (µMACS/MultiMACS GFP Isolation Kit beads) from thylakoid membranes of GFP-labelled Syn7942 strains solubilised with 1% digitonin; five washes with 10 mM Tris pH 6.8, 200 mM NaCl, 1 mM EDTA; eluate on 12% SDS-PAGE, subunits assigned to bands

binding | Substance
binds | PsaL (from UniProt P95822)
binds | PsbB (CP47) (from UniProt P31094 1-508)
binds | PsbO (from UniProt P11472)

target: PsbB (CP47) of Photosystem II labelled with enhanced GFP (PSII–GFP) (Synechococcus elongatus PCC 7942) (UniProt P31094); experiment: as above

binding | Substance
binds | PsaA (from UniProt Q31LJ0)
binds | PsaB (from UniProt Q31LJ1)
binds | PsaL (from UniProt P95822)
